± gives the uncertainty stated by the source. The uncertainty is large for many entries.
Assay: self-splicing fitness, log relative to wild type (ln ratio); higher = more splicing; Tetrahymena group I intron in knt gene, E. coli kanamycin selection, DiMSum; sequences stand for … in CUCUCU…GGAGGGAAAAGUUAUCAGGCAUGCACCUGGUAGCUAGUCUUUAAACCAAUAGAUUGCAUCGGUUUAAAAGGCAAGACCGUCAAAUUGCGGGAAAGGGGUCAACAGCCGUUCAGUACCAAGUCUCAGGGGAAACUUUGAGAUGGCCUUGCAAAGGGUAUGGUAAUAAGCUGACGGACAUGGUCCUAACCACGCAGCCAAGUCCUAAGUCAACAGAUCUUCUGUUGAUAUGGAUGCAGUUCACAGACUAAAUGUCGGUCGGGGAAGAUGUAUUCUUCUCAUAAGAUAUAGUCGGACCUCUCCUUAAUGGGAGCUAGCGGAUGAAGUGAUGCAACACUGGAGCCGCUGGGAACUAAUUUGUAUGCGAAAGUAUAUUGAUUAGUUUUGGAGUACUCGUGGUCG
Method in brief: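 Six replicate transformations of E. coli BL21(DE3) with a pET-22b(+) library were grown overnight at 37°C or 30°C. The library randomised all eight P1ex-region intron nucleotides, the intron lying in the knt kanamycin-resistance gene, and plates were LB agar with or without 25 μg/mL kanamycin plus 100 μg/mL carbenicillin, 50 μM IPTG and 0.2% rhamnose. Pooled colonies were amplicon-sequenced on an Illumina HiSeq 2500, and fitness is the DiMSum error-weighted combination of wild-type-normalised replicate fold changes, kanamycin versus none.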

## UUAGAGCAAUAUUACGAGUU
30 °C
  self-splicing fitness (ln): -4.23 ± 1

## CCUAAGCAAUAUUACGCUCG
30 °C
  self-splicing fitness (ln): -5.11 ± 0.72

## AUGUAGCAAUAUUACGAGCC
30 °C
  self-splicing fitness (ln): -4.06 ± 0.52

## UAUUAGCAAUAUUACGCAAC
30 °C
  self-splicing fitness (ln): -1.55 ± 1.2

## UCCGAGCAAUAUUACGCAAU
30 °C
  self-splicing fitness (ln): -5.67 ± 1

## CUUCAGCAAUAUUACGCGUU
30 °C
  self-splicing fitness (ln): -2.33 ± 0.12
37 °C
  self-splicing fitness (ln): -2.7 ± 0.21

## AGUAAGCAAUAUUACGGCGC
30 °C
  self-splicing fitness (ln): -1.02 ± 0.11
37 °C
  self-splicing fitness (ln): -0.433 ± 0.13

## CAUCAGCAAUAUUACGGCCC
30 °C
  self-splicing fitness (ln): -2.18 ± 0.54
37 °C
  self-splicing fitness (ln): -1.37 ± 1.2

## UAAGAGCAAUAUUACGCCGU
30 °C
  self-splicing fitness (ln): -3.42 ± 0.6

## AUUUAGCAAUAUUACGAGAG
30 °C
  self-splicing fitness (ln): -3.58 ± 0.74

## GCAUAGCAAUAUUACGGUGC
37 °C
  self-splicing fitness (ln): -2.95 ± 0.74

## UAUGAGCAAUAUUACGGGGA
37 °C
  self-splicing fitness (ln): -2.46 ± 0.55

## GCGGAGCAAUAUUACGGGCA
30 °C
  self-splicing fitness (ln): -2.62 ± 0.64

## GUCGAGCAAUAUUACGCUGC
30 °C
  self-splicing fitness (ln): -3.07 ± 1.1

## UAGGAGCAAUAUUACGGUGC
30 °C
  self-splicing fitness (ln): -4.32 ± 0.52
37 °C
  self-splicing fitness (ln): 0.0781 ± 0.55

## UUGGAGCAAUAUUACGAAUA
30 °C
  self-splicing fitness (ln): -2.94 ± 1.1
37 °C
  self-splicing fitness (ln): -2.1 ± 0.46

## AUUGAGCAAUAUUACGCCUG
37 °C
  self-splicing fitness (ln): -2.5 ± 0.54

## AGUGAGCAAUAUUACGGAAA
37 °C
  self-splicing fitness (ln): -0.935 ± 0.77

## GUCUAGCAAUAUUACGUCCC
30 °C
  self-splicing fitness (ln): 0.0985 ± 0.14
37 °C
  self-splicing fitness (ln): -0.0539 ± 0.14

## ACCAAGCAAUAUUACGUAAC
30 °C
  self-splicing fitness (ln): -3.94 ± 0.17
37 °C
  self-splicing fitness (ln): -2.19 ± 0.16

## AGAGAGCAAUAUUACGGCCA
30 °C
  self-splicing fitness (ln): -3.48 ± 1.1
37 °C
  self-splicing fitness (ln): -2 ± 0.78

## CCCCAGCAAUAUUACGGAGC
30 °C
  self-splicing fitness (ln): -3.08 ± 0.15
37 °C
  self-splicing fitness (ln): -2.83 ± 0.23

## UGGGAGCAAUAUUACGCGGA
30 °C
  self-splicing fitness (ln): -3.56 ± 0.52

## UAUAAGCAAUAUUACGCAAC
37 °C
  self-splicing fitness (ln): -2.87 ± 0.62

## GUUCAGCAAUAUUACGGACG
30 °C
  self-splicing fitness (ln): -2.15 ± 0.11
37 °C
  self-splicing fitness (ln): -0.428 ± 0.11

## CGGUAGCAAUAUUACGGCAC
30 °C
  self-splicing fitness (ln): -2.11 ± 0.26
37 °C
  self-splicing fitness (ln): -1.99 ± 0.36

## GGAGAGCAAUAUUACGUUAA
30 °C
  self-splicing fitness (ln): -2.31 ± 0.51
37 °C
  self-splicing fitness (ln): -2.64 ± 1.1

## CGGCAGCAAUAUUACGAUCG
30 °C
  self-splicing fitness (ln): -2.76 ± 0.18
37 °C
  self-splicing fitness (ln): -1.97 ± 0.19

## CCGCAGCAAUAUUACGGGAU
30 °C
  self-splicing fitness (ln): -4.16 ± 0.33
37 °C
  self-splicing fitness (ln): -1.82 ± 0.16

## GGAGAGCAAUAUUACGCAGG
30 °C
  self-splicing fitness (ln): -5.41 ± 0.71
37 °C
  self-splicing fitness (ln): -4.29 ± 0.59

## UAGGAGCAAUAUUACGCUGU
30 °C
  self-splicing fitness (ln): -3.77 ± 0.73
37 °C
  self-splicing fitness (ln): -2.19 ± 0.79

## GCGGAGCAAUAUUACGGCUU
30 °C
  self-splicing fitness (ln): -2.62 ± 0.62

## CGUUAGCAAUAUUACGCACG
37 °C
  self-splicing fitness (ln): -2.63 ± 0.54

## GGGGAGCAAUAUUACGGCGA
30 °C
  self-splicing fitness (ln): -2.4 ± 0.26
37 °C
  self-splicing fitness (ln): -1.81 ± 0.24

## ACAGAGCAAUAUUACGCUAA
30 °C
  self-splicing fitness (ln): -5.18 ± 1
37 °C
  self-splicing fitness (ln): -3.43 ± 0.52

## CGAGAGCAAUAUUACGGCAA
30 °C
  self-splicing fitness (ln): -2.62 ± 0.76

## UGUUAGCAAUAUUACGCCAC
37 °C
  self-splicing fitness (ln): -1.79 ± 1.2

## CGCGAGCAAUAUUACGCACC
30 °C
  self-splicing fitness (ln): -2.98 ± 0.54
37 °C
  self-splicing fitness (ln): -1 ± 0.92

## GGCUAGCAAUAUUACGUCAG
37 °C
  self-splicing fitness (ln): -1.39 ± 1.2

## GAAAAGCAAUAUUACGCCGC
37 °C
  self-splicing fitness (ln): -2.13 ± 0.56

## AGGCAGCAAUAUUACGCCCC
30 °C
  self-splicing fitness (ln): -2.79 ± 1.2
37 °C
  self-splicing fitness (ln): -1.93 ± 0.81

## CUAGAGCAAUAUUACGCUUU
30 °C
  self-splicing fitness (ln): -4.8 ± 1
37 °C
  self-splicing fitness (ln): -3.31 ± 0.6

## CUUGAGCAAUAUUACGCCGG
30 °C
  self-splicing fitness (ln): -4.04 ± 0.46
37 °C
  self-splicing fitness (ln): -1.65 ± 0.47

## UCCGAGCAAUAUUACGGCUU
37 °C
  self-splicing fitness (ln): -3.34 ± 1

## GCUUAGCAAUAUUACGAAGU
30 °C
  self-splicing fitness (ln): -3.26 ± 0.21
37 °C
  self-splicing fitness (ln): -2.27 ± 0.21

## UCUAAGCAAUAUUACGAAUC
30 °C
  self-splicing fitness (ln): -4.12 ± 1

## UGCCAGCAAUAUUACGUCGG
30 °C
  self-splicing fitness (ln): -4.72 ± 0.41
37 °C
  self-splicing fitness (ln): -2.68 ± 0.25

## UUGUAGCAAUAUUACGGGAG
30 °C
  self-splicing fitness (ln): -4.37 ± 0.59

## AAUCAGCAAUAUUACGCAUU
30 °C
  self-splicing fitness (ln): -1.1 ± 0.072
37 °C
  self-splicing fitness (ln): -0.498 ± 0.086

## CACAAGCAAUAUUACGAGCA
30 °C
  self-splicing fitness (ln): -2.96 ± 0.2
37 °C
  self-splicing fitness (ln): -2.28 ± 0.17

## CUUCAGCAAUAUUACGGGCC
37 °C
  self-splicing fitness (ln): -1.29 ± 0.61

## ACAGAGCAAUAUUACGAAAA
30 °C
  self-splicing fitness (ln): -2.27 ± 0.51

## GCUAAGCAAUAUUACGCAAG
30 °C
  self-splicing fitness (ln): -3.64 ± 0.74

## ACUUAGCAAUAUUACGAGUC
30 °C
  self-splicing fitness (ln): -4.93 ± 0.59

## UUUGAGCAAUAUUACGGCGC
37 °C
  self-splicing fitness (ln): -2.22 ± 0.64

## GCAGAGCAAUAUUACGUCUC
30 °C
  self-splicing fitness (ln): -4.26 ± 1

## AAUGAGCAAUAUUACGAGCC
37 °C
  self-splicing fitness (ln): -1.81 ± 0.52
